This is an account of results in paper PMC12040169 (PLOS Biology, 2025).

The other results are listed elsewhere or left out.

The test has as its system T1, CTL2-GFP (C. trachomatis L2/434/Bu, GFP-expressing).
T1 construct: L2/434/Bu, GFP-expressing
The arrangement: species or system HeLa; Intracellular C. trachomatis growth in HeLa cells, bulk GFP fluorescence relative to DMSO. As to conditions: bulk GFP, single well; 28.5 h, 10 µM; inhibitor.
Regarding `NC(=O)CSc1nnc(NC(=O)c2ccccc2Cl)s1` [CBK287629], the “% of control remaining” value was determined as 129.472%.

For `COc1cccc(Nc2cc(-c3ccc(CC(C)C)cc3)ncn2)c1` [CBK090745], the “% of control remaining” value is listed as 162.027%.

In the case of `CCCc1c(C(=O)NCC(C)(C)CN(C)C)cnn1-c1cc(Cl)cc(Cl)c1` [CBK107381], the “% of control remaining” value is 134.183%.

With `Cc1noc(C)c1CC(=O)N1CCc2[nH]c3ccccc3c2C1` [CBK281848], the “% of control remaining” value amounted to 171.621%.

In the case of `N#Cc1ccsc1NC(=O)CN1CCC(CNc2ccccn2)C1` (stereo not drawn) [CBK306117], the “% of control remaining” value stood at 114.465%.

On to `O=C(/C=C/c1ccccc1)N/C(=C/c1ccccc1)C(=O)Nc1ccc2ccccc2c1` [CBK265023], for which the “% of control remaining” value is 102.901%.

Consider `CCOc1ccccc1-c1ccccc1NC(=O)c1nc2ccccc2n(C)c1=O` [CBK285855], for which the “% of control remaining” value was 127.614%.

On to `O=C(CSc1ncccn1)Nc1cccc(Cl)c1` [CBK058217], for which the “% of control remaining” value was 142.48%.

For `COc1ccccc1-c1ncc(OCC(F)(F)F)nc1NC(=O)c1ccco1` [CBK145277], the “% of control remaining” value worked out at 62.1183%.

With `Cc1cc2c(o1)c1cnn(CC(=O)N3CCCC3)c(=O)c1n2C` [CBK284223], the “% of control remaining” value turned out to be 115.703%.

Turning to `O=C(NCCCc1ccc(F)cc1)c1cccc(-n2cnnc2)c1` [CBK282713], the “% of control remaining” value is 112.757%.

Take `Cc1no[n+]([O-])c1COc1cccc(/C=C2\N=C(c3ccccc3)OC2=O)c1` [CBK263454]: the “% of control remaining” value was 113.919%.

Regarding `CC(=O)Nc1ccc(NC(=O)c2cnc(-c3ccc(F)cc3)c(-c3ccco3)c2)cc1` [CBK037977], the “% of control remaining” value worked out at 133.246%.

For the compound `Cc1ccc(N2C(=O)c3[nH]nc(C)c3C2c2ccc(O)cc2)cc1` (stereo not drawn) [CBK287915], the “% of control remaining” value was determined as 58.8996%.

Consider `COc1ccc(/C=C(/NC(=O)/C=C/c2ccccc2)C(=O)O)cc1` [CBK264996], for which the “% of control remaining” value is given as 100%.

On to `c1ccc(N2CCN(c3cccc(-c4ccc5c(c4)OCO5)n3)CC2)nc1` [CBK036851], for which the “% of control remaining” value worked out at 138.85%.

As to `NNC(=O)c1cc(-c2ccccc2)nc2ccc(Br)cc12` [CBK261762], the “% of control remaining” value is 109.426%.

For `CCn1cc(NC(=S)Nc2sc3c(c2C(=O)OC)CCC(C)C3)c(C(N)=O)n1` (stereo not drawn) [CBK267032], the “% of control remaining” value is on record as 132.201%.

As to `O=C(c1nc(=O)[nH][nH]1)N1CCN(Cc2ccc(C(F)(F)F)cc2)CC1` [CBK298312], the “% of control remaining” value is on record as 115.223%.

On to `CN1CCC(N(C)Cc2cc(Cl)ccc2[N+](=O)[O-])CC1` [CBK261576], for which the “% of control remaining” value is 123.327%.

For the compound `O=C(O)C1CCN(C(=O)Nc2ccccc2Cl)CC1` [CBK161407], the “% of control remaining” value is on record as 98.6591%.

Turning to `O=C(Nc1ccc(Cl)c(Cl)c1)N1CCN(c2n[nH]c(=O)[nH]c2=O)CC1` [CBK297514], the “% of control remaining” value amounted to 150.023%.

`O=S(=O)(NCc1ccc(CNS(=O)(=O)c2ccccc2)cc1)c1ccccc1` [CBK265471]: the “% of control remaining” value is reported as 91.8919%.

`COc1ccc(-n2c(SCC(=O)O)nnc2-c2cccs2)cc1` [CBK265636]: the “% of control remaining” value stood at 93.8535%.

In the case of `Cc1ccc2[nH]c(Cc3ccc(NC(=O)CCC4C(=O)Nc5ccccc54)cc3)nc2c1` (stereo not drawn) [CBK285824], the “% of control remaining” value amounted to 137.291%.

For `CCn1ncc(S(=O)(=O)N2CCCC(c3cccc(Cc4cccc(C)c4)n3)C2)c1C` (stereo not drawn) [CBK286244], the “% of control remaining” value is on record as 97.4223%.

Turning to `O=C(O)CCCc1nc(-c2ccccn2)no1` [CBK010880], the “% of control remaining” value was determined as 146.214%.

On to `Nc1ccc(C(=O)Nc2ccc(Nc3cc(-c4ccco4)ncn3)cc2)cc1` [CBK091099], for which the “% of control remaining” value amounted to 112.523%.

As for `O=C(CC(C(=O)O)n1cnc([N+](=O)[O-])n1)c1ccc(Br)cc1` (stereo not drawn) [CBK267524], the “% of control remaining” value is on record as 144.712%.

Consider `CC(C)(C)NC(=O)CN1CCC(c2ccccc2F)CC1` [CBK283499], for which the “% of control remaining” value was found to be 117.421%.

With `Cn1cc(C(O)CNC(=O)NCCc2csc3ccccc23)cn1` (stereo not drawn) [CBK305219], the “% of control remaining” value was found to be 64.0517%.

As to `O=C(Nc1ccc(F)cc1)c1[nH]c2ccccc2c1NS(=O)(=O)c1ccc(C(F)(F)F)cc1[N+](=O)[O-]` [CBK050090], the “% of control remaining” value turned out to be 108.746%.

In the case of `CCC(Oc1ccccc1)C(=O)Nc1ccccc1-c1ccccc1` (stereo not drawn) [CBK266031], the “% of control remaining” value is given as 73.4163%.

On to `COc1ccccc1NC(=O)c1ccc(-c2nnc(-c3ccccc3)o2)cc1` [CBK266533], for which the “% of control remaining” value amounted to 144.587%.

On to `O=C(CSc1nnc(-c2ccco2)n1Cc1ccco1)c1ccc(-c2ccccc2)cc1` [CBK267555], for which the “% of control remaining” value came out at 152.5%.

In the case of `COc1ccccc1-c1cn2ccnc2c(N(C)CCN(C)C)n1` [CBK066156], the “% of control remaining” value worked out at 164.439%.

Turning to `COc1cccc(CNc2nccc(-n3nc(C)cc3C)n2)c1` [CBK288612], the “% of control remaining” value is given as 145.724%.

On to `CC1=CC(C)C(CNCCN2CCNCC2)C(C)C1` (stereo not drawn) [CBK262832], for which the “% of control remaining” value is listed as 85.5169%.

Consider `O=C(NC1=NCCS1)c1cc2ccccc2o1` [CBK058927], for which the “% of control remaining” value is reported as 136.354%.

For the compound `CCc1c(C)nc2c(NC(C)=O)cccc2c1SCCC(=O)O` [CBK159594T], the “% of control remaining” value worked out at 122.08%.

On to `O=C1Nc2cc(C(F)(F)F)ccc2N2CCCC12` (stereo not drawn) [CBK288125], for which the “% of control remaining” value stood at 153.555%.

Take `CCN1CCC[C@@H]1CNC(=O)c1n[nH]c2c1CCC2` [CBK174628]: the “% of control remaining” value came out at 127.737%.

For `O=C1CCCN1c1ccc(CN2CCC(O)(c3ccccc3)C2)cc1` (stereo not drawn) [CBK282808], the “% of control remaining” value stood at 115.255%.

`CC(C)(C)NCC(O)c1ccc(O)c2c1C1CCC2CC1` (stereo not drawn) [CBK013269C]: the “% of control remaining” value is recorded as 141.625%.

On to `Cc1cc(C)n2nc(CC(=O)N3CCCC3c3ccccn3)nc2n1` (stereo not drawn) [CBK304408], for which the “% of control remaining” value came out at 157.787%.

With `O=S(=O)(Cc1ccccc1)c1cc2c(N3CCNCC3)nccc2s1` [CBK200017C], the “% of control remaining” value came to 111.673%.

For the compound `CCOC(NC(=O)Nc1ccc(Br)cc1)(C(F)(F)F)C(F)(F)F` [CBK027208], the “% of control remaining” value stood at 119.396%.

Regarding `CN(CCC#N)S(=O)(=O)c1ccc(Cl)c(Cl)c1` [CBK045396], the “% of control remaining” value is given as 124.62%.

For the compound `Cc1ccc(S(=O)(=O)N(C)CC(=O)Nc2ncc(C(F)(F)F)cc2Cl)cc1` [CBK266729], the “% of control remaining” value was found to be 134.92%.

Regarding `Cn1c(=O)c2c(nc(CN3CCN(Cc4ccccc4)CC3)n2CCCc2ccccc2)n(C)c1=O` [CBK269582], the “% of control remaining” value stood at 182.215%.

On to `CC(C)CN(CC(=O)NC1(c2ccccc2)CCC1)C(=O)N(C)C` [CBK062704], for which the “% of control remaining” value was found to be 161.393%.

For the compound `O=C(c1ccc(F)cc1)N1CCC(c2cc3cccnc3[nH]2)CC1` [CBK285001], the “% of control remaining” value was found to be 137.393%.

Turning to `CCC(=O)N1CCC[C@H]1Cn1nc(-c2ccc(F)cc2)ccc1=O` [CBK284253], the “% of control remaining” value is listed as 139.262%.

In the case of `Cn1ccnc1C1(O)CC2CCC(C1)N2C(=O)Nc1ccccc1F` (stereo not drawn) [CBK284178], the “% of control remaining” value is reported as 112.766%.

`COc1cccc([C@H]2CN(C(=O)c3ccccc3)[C@@H]3CCN(Cc4ccsc4)C[C@H]23)c1` [CBK285611]: the “% of control remaining” value came out at 85.5121%.

`COc1ccccc1CCC(=O)NCc1cnc(SC)n1C` [CBK306926]: the “% of control remaining” value is on record as 159.914%.

`O=C(CNC(=O)c1ccccc1)N/N=C/c1ccc(C(=O)O)cc1` [CBK261976]: the “% of control remaining” value came to 88.7098%.

For the compound `CC(C)N(C(=O)c1ccccc1-c1cnc2nncn2c1)C(C)C` [CBK306701], the “% of control remaining” value came to 106.774%.

For the compound `CS(=O)(=O)c1ccc(Cn2ccnc(N3CCN(C(=O)c4ccc5occc5c4)CC3)c2=O)cc1` [CBK153777], the “% of control remaining” value was 105.761%.

For the compound `O=C(Nc1cccnc1N1CCNCC1)c1cc(F)cc(F)c1` [CBK029420T], the “% of control remaining” value is on record as 120.222%.

`O=C(O)CCCN1C(=O)C(O)=C(C(=O)c2ccc([N+](=O)[O-])cc2)C1c1ccccc1F` (stereo not drawn) [CBK263810]: the “% of control remaining” value amounted to 85.5102%.

As to `CN1CCN(C(=O)c2ccc(-c3ccco3)nc2N(C)C)CC1` [CBK106121], the “% of control remaining” value was found to be 121.162%.

`O=C(Nc1ccccc1Nc1cc(-c2ccccc2)nn1-c1ccccc1)c1ccc(Br)cc1` [CBK261297]: the “% of control remaining” value came out at 60.3232%.

As to `Cc1cc(C)nc(-n2ncc3c2CC(c2cccs2)CC3=O)n1` (stereo not drawn) [CBK269371], the “% of control remaining” value is recorded as 125.796%.

Consider `CNc1cc(C(=O)N[C@@H]2CCOC[C@H]2Oc2ccc(CO)cc2)ccn1` [CBK306606], for which the “% of control remaining” value was 134.681%.

For `Cc1ccc2nc(C)cc(C(=O)OCc3ccc(C(N)=O)cc3)c2c1` [CBK296676], the “% of control remaining” value is 151.334%.

In the case of `O=C1C(=CNCCC(c2ccccc2)c2ccccc2)C(=O)c2ccccc21` [CBK262987], the “% of control remaining” value is reported as 100%.

In the case of `Cc1ccc(-c2cc(C(=O)NCCCN3CCOCC3)c3cc(Cl)ccc3n2)o1` [CBK267737], the “% of control remaining” value is recorded as 110.961%.

In the case of `CC(=O)C1=C(O)C(=O)N(CCCC(=O)O)C1c1ccc(Br)cc1` (stereo not drawn) [CBK286784], the “% of control remaining” value was 77.791%.

As to `CN1CCCN(c2cncc(-c3cc4ccccc4o3)n2)CC1` [CBK065997], the “% of control remaining” value amounted to 220.222%.

For the compound `Cc1nn(C)c(C)c1NC(=O)c1ncoc1-c1ccc(F)cc1` [CBK282359], the “% of control remaining” value turned out to be 123.55%.

Turning to `O=S(=O)(c1cnc(Cl)c(Br)c1)N1CCC2(CC1)OCCO2` [CBK044070], the “% of control remaining” value came out at 89.9449%.

`CN(CC(=O)NCC1CCN(c2cccc(Cl)c2)C1)Cc1cccnc1` (stereo not drawn) [CBK306761]: the “% of control remaining” value is recorded as 116.842%.

`CS(=O)(=O)c1ccc(CN2C(=O)CC3(CCN(C(=O)c4ccc([N+](=O)[O-])cc4)CC3)C2=O)cc1` [CBK155019]: the “% of control remaining” value is recorded as 129.454%.

Turning to `O=c1ccc(-c2ccccc2)nn1CC1CCNCC1` [CBK284203], the “% of control remaining” value was found to be 121.296%.

With `O=C(C1COc2ccccc2O1)N1CCN(c2ncccn2)CC1` (stereo not drawn) [CBK144502], the “% of control remaining” value came to 91.5455%.

For `O=C(N/N=C\c1c(F)cccc1Cl)c1ccncc1` [CBK023263], the “% of control remaining” value amounted to 171.482%.

With `COc1ccccc1-c1nccnc1N[C@H]1CCN(Cc2ccccc2)C1` [CBK037626], the “% of control remaining” value is on record as 164.359%.
